# The list shows a part of the results.
# The chains behind the UniProt entries cited, without tags or fusion partners. Where a name states a change or a piece, a line headed by the entry shows the natural chain unless it says otherwise.
# UniProt Q9Y383: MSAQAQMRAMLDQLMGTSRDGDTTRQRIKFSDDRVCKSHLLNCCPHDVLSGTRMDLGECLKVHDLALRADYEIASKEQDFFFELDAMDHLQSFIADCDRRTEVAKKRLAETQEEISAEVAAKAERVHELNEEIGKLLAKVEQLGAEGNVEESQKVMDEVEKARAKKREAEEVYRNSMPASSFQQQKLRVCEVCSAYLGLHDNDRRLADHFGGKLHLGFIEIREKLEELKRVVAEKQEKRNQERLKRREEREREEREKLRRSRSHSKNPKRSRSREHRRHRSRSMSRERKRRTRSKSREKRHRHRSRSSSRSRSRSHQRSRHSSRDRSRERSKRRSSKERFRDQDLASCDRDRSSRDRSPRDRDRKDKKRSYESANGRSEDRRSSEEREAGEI
# UniProt Q7L5Y9: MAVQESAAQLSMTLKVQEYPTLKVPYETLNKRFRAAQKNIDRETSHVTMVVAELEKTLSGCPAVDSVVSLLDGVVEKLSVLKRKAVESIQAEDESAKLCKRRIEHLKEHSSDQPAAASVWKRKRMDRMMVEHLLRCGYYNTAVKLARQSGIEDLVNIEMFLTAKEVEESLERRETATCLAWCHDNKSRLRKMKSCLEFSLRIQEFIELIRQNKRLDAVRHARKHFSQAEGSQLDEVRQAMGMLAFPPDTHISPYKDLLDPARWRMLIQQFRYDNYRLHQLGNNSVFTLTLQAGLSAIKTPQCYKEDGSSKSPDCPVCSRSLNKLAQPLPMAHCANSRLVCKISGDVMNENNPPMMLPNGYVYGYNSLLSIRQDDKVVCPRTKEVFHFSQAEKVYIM
# UniProt Q9NU23: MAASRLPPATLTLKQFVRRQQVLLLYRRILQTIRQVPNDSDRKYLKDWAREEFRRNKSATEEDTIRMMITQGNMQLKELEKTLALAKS
# UniProt Q96GW9: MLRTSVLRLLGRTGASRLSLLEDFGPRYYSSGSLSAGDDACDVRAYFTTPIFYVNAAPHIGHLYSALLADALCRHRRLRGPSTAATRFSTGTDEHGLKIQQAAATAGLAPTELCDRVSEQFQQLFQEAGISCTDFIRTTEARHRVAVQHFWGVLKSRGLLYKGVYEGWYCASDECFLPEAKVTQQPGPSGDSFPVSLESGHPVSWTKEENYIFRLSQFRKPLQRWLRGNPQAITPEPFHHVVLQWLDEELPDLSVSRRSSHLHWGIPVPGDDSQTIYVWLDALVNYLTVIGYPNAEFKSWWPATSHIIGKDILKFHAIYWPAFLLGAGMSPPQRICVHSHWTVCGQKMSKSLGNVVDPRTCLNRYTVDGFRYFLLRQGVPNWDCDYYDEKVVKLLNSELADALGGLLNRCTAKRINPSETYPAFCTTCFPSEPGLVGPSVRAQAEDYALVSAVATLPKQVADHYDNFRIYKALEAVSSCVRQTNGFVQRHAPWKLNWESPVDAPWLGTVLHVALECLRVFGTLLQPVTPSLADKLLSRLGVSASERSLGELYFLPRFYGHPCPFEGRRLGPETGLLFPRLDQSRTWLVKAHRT
# UniProt Q9UKM7: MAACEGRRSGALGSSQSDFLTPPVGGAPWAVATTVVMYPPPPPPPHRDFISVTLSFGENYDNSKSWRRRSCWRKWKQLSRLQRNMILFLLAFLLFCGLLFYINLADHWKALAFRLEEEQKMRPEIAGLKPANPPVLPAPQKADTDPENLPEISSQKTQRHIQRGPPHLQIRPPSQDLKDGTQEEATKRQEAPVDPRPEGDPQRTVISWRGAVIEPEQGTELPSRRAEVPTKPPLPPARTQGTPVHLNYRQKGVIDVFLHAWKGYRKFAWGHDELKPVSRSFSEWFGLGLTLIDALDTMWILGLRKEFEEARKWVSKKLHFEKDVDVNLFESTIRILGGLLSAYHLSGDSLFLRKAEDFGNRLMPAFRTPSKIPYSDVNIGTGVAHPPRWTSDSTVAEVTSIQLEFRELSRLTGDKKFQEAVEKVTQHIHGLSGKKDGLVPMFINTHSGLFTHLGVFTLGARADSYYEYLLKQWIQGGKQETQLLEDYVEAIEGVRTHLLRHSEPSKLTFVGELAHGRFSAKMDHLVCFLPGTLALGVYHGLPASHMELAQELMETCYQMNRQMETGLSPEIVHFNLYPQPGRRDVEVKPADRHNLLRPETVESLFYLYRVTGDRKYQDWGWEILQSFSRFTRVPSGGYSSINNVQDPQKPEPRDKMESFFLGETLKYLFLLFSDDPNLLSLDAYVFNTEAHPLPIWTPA
# UniProt Q86V48: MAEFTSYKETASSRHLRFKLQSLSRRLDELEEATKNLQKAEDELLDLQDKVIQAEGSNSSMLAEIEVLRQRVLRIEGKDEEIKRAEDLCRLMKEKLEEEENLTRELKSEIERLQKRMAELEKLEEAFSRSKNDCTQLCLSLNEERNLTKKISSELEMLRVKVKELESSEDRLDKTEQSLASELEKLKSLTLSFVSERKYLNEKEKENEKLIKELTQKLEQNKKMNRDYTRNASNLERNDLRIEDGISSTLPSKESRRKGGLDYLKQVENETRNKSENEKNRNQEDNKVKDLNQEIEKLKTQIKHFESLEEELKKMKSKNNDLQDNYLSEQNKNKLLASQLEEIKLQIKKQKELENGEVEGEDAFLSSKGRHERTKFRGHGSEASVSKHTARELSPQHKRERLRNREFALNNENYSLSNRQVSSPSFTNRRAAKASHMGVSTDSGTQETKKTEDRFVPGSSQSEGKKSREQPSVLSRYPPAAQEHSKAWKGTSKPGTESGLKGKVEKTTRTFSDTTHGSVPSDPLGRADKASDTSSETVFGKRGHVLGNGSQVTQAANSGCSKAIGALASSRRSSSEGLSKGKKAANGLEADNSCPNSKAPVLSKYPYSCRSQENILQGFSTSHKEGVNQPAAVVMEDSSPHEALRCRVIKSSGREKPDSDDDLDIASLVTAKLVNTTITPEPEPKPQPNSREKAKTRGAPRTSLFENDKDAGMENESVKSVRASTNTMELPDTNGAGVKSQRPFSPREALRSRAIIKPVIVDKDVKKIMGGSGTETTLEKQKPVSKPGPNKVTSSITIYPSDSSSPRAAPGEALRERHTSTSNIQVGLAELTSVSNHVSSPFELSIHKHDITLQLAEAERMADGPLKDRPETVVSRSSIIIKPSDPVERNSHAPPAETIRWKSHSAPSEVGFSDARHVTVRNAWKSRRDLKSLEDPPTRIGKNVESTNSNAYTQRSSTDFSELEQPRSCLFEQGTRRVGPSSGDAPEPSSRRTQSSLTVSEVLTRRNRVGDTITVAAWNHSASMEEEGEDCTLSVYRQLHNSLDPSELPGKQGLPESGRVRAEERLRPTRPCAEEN
# UniProt Q96GA3: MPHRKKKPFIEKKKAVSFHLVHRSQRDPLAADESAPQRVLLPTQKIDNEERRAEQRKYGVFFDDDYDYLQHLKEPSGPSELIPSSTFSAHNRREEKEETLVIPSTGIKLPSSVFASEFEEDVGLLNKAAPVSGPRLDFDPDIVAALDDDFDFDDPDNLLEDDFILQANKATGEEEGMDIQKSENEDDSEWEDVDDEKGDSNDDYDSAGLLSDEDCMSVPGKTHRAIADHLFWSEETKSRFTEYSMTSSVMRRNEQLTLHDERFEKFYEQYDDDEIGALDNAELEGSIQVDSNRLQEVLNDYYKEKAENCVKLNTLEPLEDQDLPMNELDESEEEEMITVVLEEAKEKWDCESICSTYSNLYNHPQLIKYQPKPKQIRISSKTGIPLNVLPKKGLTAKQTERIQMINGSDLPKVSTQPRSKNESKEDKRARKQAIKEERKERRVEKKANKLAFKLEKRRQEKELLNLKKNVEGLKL
# UniProt Q13257, whole entry, looked up: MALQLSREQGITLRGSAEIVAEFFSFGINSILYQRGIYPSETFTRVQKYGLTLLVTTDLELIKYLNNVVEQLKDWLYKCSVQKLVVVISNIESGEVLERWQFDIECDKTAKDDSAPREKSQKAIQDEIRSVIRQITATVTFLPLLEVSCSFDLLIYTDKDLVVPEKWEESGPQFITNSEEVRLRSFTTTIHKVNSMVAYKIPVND
# UniProt P46821: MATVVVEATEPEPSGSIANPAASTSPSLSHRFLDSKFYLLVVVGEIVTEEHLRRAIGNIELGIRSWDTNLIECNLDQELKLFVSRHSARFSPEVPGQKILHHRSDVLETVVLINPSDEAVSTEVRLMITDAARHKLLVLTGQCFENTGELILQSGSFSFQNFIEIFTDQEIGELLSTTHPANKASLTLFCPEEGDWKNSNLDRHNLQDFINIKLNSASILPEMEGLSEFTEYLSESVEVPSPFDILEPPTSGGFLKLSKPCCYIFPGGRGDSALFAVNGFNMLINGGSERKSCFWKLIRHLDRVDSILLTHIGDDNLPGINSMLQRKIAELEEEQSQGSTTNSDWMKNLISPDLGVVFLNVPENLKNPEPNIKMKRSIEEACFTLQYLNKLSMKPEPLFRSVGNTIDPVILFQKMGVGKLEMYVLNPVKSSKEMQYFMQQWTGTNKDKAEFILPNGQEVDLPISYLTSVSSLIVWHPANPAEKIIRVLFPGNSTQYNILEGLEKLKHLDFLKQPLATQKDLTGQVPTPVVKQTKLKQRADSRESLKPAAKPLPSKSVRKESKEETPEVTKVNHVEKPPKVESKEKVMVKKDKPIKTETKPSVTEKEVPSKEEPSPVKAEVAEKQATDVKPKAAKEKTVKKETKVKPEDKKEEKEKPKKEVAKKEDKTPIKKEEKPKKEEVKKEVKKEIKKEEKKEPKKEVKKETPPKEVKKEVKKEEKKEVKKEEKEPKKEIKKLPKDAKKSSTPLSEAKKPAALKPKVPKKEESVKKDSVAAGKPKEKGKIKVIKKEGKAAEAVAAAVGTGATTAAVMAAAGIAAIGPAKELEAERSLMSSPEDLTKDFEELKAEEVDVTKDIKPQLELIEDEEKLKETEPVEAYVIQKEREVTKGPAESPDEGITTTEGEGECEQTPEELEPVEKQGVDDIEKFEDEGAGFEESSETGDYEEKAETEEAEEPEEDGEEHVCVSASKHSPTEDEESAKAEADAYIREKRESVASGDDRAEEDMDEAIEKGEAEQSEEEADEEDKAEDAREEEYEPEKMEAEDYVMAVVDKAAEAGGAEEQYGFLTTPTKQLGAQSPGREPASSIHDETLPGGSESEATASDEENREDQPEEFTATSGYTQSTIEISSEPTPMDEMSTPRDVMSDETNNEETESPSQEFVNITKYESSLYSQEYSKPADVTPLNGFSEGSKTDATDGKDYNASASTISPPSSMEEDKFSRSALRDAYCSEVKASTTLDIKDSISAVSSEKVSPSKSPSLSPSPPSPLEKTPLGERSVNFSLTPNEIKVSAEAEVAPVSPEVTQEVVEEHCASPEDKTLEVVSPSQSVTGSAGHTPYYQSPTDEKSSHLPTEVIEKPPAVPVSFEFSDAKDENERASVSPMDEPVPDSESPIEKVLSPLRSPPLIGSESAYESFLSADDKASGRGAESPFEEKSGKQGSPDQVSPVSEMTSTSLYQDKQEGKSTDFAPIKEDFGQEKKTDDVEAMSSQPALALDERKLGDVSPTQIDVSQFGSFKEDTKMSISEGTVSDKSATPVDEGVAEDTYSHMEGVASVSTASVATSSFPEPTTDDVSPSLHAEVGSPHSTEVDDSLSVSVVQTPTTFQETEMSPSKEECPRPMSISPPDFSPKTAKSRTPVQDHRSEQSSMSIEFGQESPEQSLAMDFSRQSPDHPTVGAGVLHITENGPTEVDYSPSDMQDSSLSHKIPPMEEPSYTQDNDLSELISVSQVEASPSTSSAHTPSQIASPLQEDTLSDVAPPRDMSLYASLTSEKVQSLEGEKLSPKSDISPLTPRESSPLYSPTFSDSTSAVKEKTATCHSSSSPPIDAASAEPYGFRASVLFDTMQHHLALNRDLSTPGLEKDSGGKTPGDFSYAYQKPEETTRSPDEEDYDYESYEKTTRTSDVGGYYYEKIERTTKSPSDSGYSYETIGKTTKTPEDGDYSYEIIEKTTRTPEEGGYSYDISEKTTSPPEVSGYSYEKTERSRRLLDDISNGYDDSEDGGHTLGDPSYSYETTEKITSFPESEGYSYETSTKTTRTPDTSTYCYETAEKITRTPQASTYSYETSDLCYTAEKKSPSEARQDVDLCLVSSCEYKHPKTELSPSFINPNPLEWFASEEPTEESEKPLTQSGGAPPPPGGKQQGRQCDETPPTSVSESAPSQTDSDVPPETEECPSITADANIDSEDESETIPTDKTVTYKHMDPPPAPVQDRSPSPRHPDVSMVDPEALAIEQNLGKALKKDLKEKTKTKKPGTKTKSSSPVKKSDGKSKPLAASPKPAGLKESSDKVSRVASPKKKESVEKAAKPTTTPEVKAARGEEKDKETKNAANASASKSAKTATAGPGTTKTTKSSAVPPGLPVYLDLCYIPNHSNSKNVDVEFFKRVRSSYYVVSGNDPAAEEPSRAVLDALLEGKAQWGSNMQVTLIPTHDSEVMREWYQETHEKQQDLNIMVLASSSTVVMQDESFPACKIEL
# Experiments:
# Assay in all cases: log2 fold change, soluble protein after heating vs DMSO (PISA); higher = thermal stabilisation; K562 lysate, 10 uM; active = over 0.2 and 3.5 SD of the protein, either way, in both replicates (recomputed)
# lapatinib = compound: CS(=O)(=O)CCNCc1ccc(-c2ccc3ncnc(Nc4ccc(OCc5cccc(F)c5)c(Cl)c4)c3c2)o1 [lapatinib]
# In short: (§1)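 Soluble protein was defined as the supernatant remaining after 21,000xg for 90 min, following pooling of heated aliquots and adjustment to 0.5% NP-40 at 4°C. Before that, crude K562 extract at 1 mg/mL protein in PBS pH 7.4 with 1 mM MgCl2 was treated with 10 μM compound for 30 min and heated for 3 min across 48°C-58°C. Quantification used TMTpro 16plex LC-MS/MS with channel sums equalised, and values are log-two fold changes in thermal stability relative to solvent controls from duplicates.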
# pictilisib = compound: CS(=O)(=O)N1CCN(Cc2cc3nc(-c4cccc5[nH]ncc45)nc(N4CCOCC4)c3s2)CC1 [pictilisib]
# In short: as §1
# crizotinib = compound: C[C@@H](Oc1cc(-c2cnn(C3CCNCC3)c2)cnc1N)c1c(Cl)ccc(F)c1Cl [crizotinib]
# In short: as §1
# [1] = compound: C[C@H](C1=CC=C(C=C1)C(=O)NC2=C3C=CNC3=NC=C2)N
# In short: as §1
# duvelisib = compound: C[C@H](Nc1ncnc2nc[nH]c12)c1cc2cccc(Cl)c2c(=O)n1-c1ccccc1 [duvelisib]
# In short: as §1
# gandotinib = compound: Cc1cc(Nc2cc(CN3CCOCC3)c3nc(C)c(Cc4ccc(Cl)cc4F)n3n2)n[nH]1 [gandotinib]
# In short: as §1
# tozasertib = compound: Cc1cc(Nc2cc(N3CCN(C)CC3)nc(Sc3ccc(NC(=O)C4CC4)cc3)n2)n[nH]1 [tozasertib]
# In short: as §1
# doramapimod = compound: Cc1ccc(-n2nc(C(C)(C)C)cc2NC(=O)Nc2ccc(OCCN3CCOCC3)c3ccccc23)cc1 [doramapimod]
# In short: as §1
# bafetinib = compound: Cc1ccc(NC(=O)c2ccc(CN3CC[C@H](N(C)C)C3)c(C(F)(F)F)c2)cc1Nc1nccc(-c2cncnc2)n1 [bafetinib]
# In short: as §1
# [2] = compound: Cc1cccc(CC(=O)N2CCc3c2ccc(-c2cn(C)c4ncnc(N)c24)c3F)n1
# In short: as §1
# nilotinib = compound: Cc1cn(-c2cc(NC(=O)c3ccc(C)c(Nc4nccc(-c5cccnc5)n4)c3)cc(C(F)(F)F)c2)cn1 [nilotinib]
# In short: as §1
# [3] = compound: Cc1nc(Nc2n[nH]c3c2CN(C(=O)N[C@H](CN(C)C)c2ccccc2)C3(C)C)c2sccc2n1
# In short: as §1
# dasatinib = compound: Cc1nc(Nc2ncc(C(=O)Nc3c(C)cccc3Cl)s2)cc(N2CCN(CCO)CC2)n1 [dasatinib]
# In short: as §1
# [4] = compound: Cc1ncc(-c2ccnc(Nc3ccc(S(C)(=O)=O)cc3)n2)n1C(C)C
# In short: as §1
# [5] = compound: Cn1cc(-c2ccc3c(c2)CCN3C(=O)Cc2cccc(C(F)(F)F)c2)c2c(N)ncnc21
# In short: as §1
# quisinostat = compound: Cn1cc(CNCC2CCN(c3ncc(C(=O)NO)cn3)CC2)c2ccccc21 [quisinostat]
# In short: as §1
# tipifarnib = compound: Cn1cncc1[C@@](N)(c1ccc(Cl)cc1)c1ccc2c(c1)c(-c1cccc(Cl)c1)cc(=O)n2C [tipifarnib]
# In short: as §1
# [6] = compound: NC(=O)Nc1cc(-c2cccc(F)c2)sc1C(=O)N[C@H]1CCCNC1
# In short: as §1
# [7] = compound: NC(=O)c1cnc(N[C@@H]2CCCC[C@@H]2N)nc1Nc1cccc(-n2nccn2)c1
# In short: as §1
# [8] = compound: NC1(c2ccc(-c3nc4ccn5c(=O)[nH]nc5c4cc3-c3ccccc3)cc2)CCC1
# In short: as §1
Target,log2 fold change (lapatinib),log2 fold change (pictilisib),log2 fold change (crizotinib),log2 fold change [1],log2 fold change (duvelisib),log2 fold change (gandotinib),log2 fold change (tozasertib),log2 fold change (doramapimod),log2 fold change (bafetinib),log2 fold change [2],log2 fold change (nilotinib),log2 fold change [3],log2 fold change (dasatinib),log2 fold change [4],log2 fold change [5],log2 fold change (quisinostat),log2 fold change (tipifarnib),log2 fold change [6],log2 fold change [7],log2 fold change [8]
LUC7L2 (UniProt Q9Y383),inactive: -0.01,inactive: 0.02,inactive: 0.025,inactive: 0.015,inactive: 0.014,inactive: -0.142,inactive: 0.043,inactive: 0.028,inactive: -0.008,inactive: -0.008,inactive: 0.007,inactive: -0.026,inactive: 0.017,inactive: -0.012,inactive: 0.004,inactive: 0.028,inactive: 0.036,inactive: -0.112,inactive: -0.009,inactive: 0.062
MAEA (UniProt Q7L5Y9),inactive: 0.012,inactive: -0.06,inactive: -0.02,inactive: -0.003,inactive: 0.026,inactive: -0.039,inactive: 0.019,inactive: -0.029,inactive: -0.043,inactive: -0.022,inactive: 0.017,inactive: -0.017,inactive: 0.006,inactive: 0.018,inactive: 0.083,inactive: -0.035,inactive: 0.014,inactive: 0.066,inactive: 0.004,inactive: 0.035
LYRM2 (UniProt Q9NU23),inactive: -0.044,inactive: 0.019,inactive: 0.056,inactive: -0.029,inactive: -0.013,inactive: 0.027,inactive: 0.022,inactive: -0.066,inactive: -0.02,inactive: 0.048,inactive: -0.001,inactive: -0.011,inactive: 0.088,inactive: 0.02,inactive: 0.015,inactive: -0.016,inactive: 0.015,inactive: 0.028,inactive: -0.005,inactive: -0.033
MAP1LC3B2 (UniProt A6NCE7),inactive: -0.029,inactive: -0.044,inactive: 0.06,inactive: -0.03,inactive: 0.032,inactive: 0.035,inactive: 0.014,inactive: -0.056,inactive: -0.005,inactive: 0.022,inactive: 0.01,inactive: -0.047,inactive: 0.009,inactive: 0.022,inactive: 0.043,inactive: 0.001,inactive: 0.046,inactive: 0.012,inactive: -0.009,inactive: 0.049
MARS2 (UniProt Q96GW9),inactive: -0.043,inactive: -0.028,inactive: 0.035,inactive: 0.027,inactive: 0.004,inactive: 0.027,inactive: 0.018,inactive: -0.008,inactive: -0.043,inactive: -0.04,inactive: 0.019,inactive: -0.018,inactive: -0.005,inactive: -0.017,inactive: 0.019,inactive: 0,inactive: 0.032,inactive: -0.002,inactive: -0.012,inactive: -0.05
MAN1B1 (UniProt Q9UKM7),inactive: -0.023,inactive: -0.006,inactive: -0.05,inactive: -0.121,inactive: -0.06,inactive: 0.03,inactive: -0.048,inactive: -0.03,inactive: 0.008,inactive: 0.091,inactive: 0.014,inactive: -0.009,inactive: 0.013,inactive: -0.046,inactive: 0.067,inactive: 0.007,inactive: -0.1,inactive: 0.03,inactive: -0.007,inactive: -0.009
LUZP1 (UniProt Q86V48),inactive: -0.006,inactive: -0.02,inactive: -0.012,inactive: 0.008,inactive: -0.026,inactive: 0.036,inactive: -0.011,inactive: -0.009,inactive: -0.034,inactive: -0.011,inactive: 0.013,inactive: -0.046,inactive: -0.004,inactive: -0.02,inactive: 0.062,inactive: -0.03,inactive: -0.005,inactive: 0.109,inactive: 0.01,inactive: 0.027
LTV1 (UniProt Q96GA3),inactive: 0.004,inactive: 0.002,inactive: 0.013,inactive: 0.041,inactive: -0.009,inactive: -0.025,inactive: -0.003,inactive: -0.044,inactive: -0.021,inactive: -0.034,inactive: -0.029,inactive: 0.022,inactive: 0.052,inactive: -0.035,inactive: 0.019,inactive: 0.026,inactive: -0.001,inactive: -0.003,inactive: -0.011,inactive: -0.021
MAD2L1 (UniProt Q13257),inactive: -0.015,inactive: 0.011,inactive: -0.024,inactive: -0.184,inactive: 0,inactive: 0.039,inactive: 0,inactive: 0.028,inactive: -0.066,inactive: 0.043,inactive: -0.011,inactive: -0.004,inactive: -0.011,inactive: -0.029,inactive: -0.013,inactive: -0.101,inactive: -0.006,inactive: 0.008,inactive: -0.02,inactive: -0.011
MASTL (UniProt Q96GX5),inactive: -0.041,inactive: -0.015,inactive: 0.077,inactive: -0.14,inactive: 0.01,inactive: 0.078,inactive: 0.03,inactive: 0.02,inactive: -0.057,inactive: 0.055,inactive: -0.029,inactive: 0.036,inactive: -0.012,inactive: 0.027,inactive: 0.046,inactive: -0.047,inactive: -0.071,inactive: 0.061,inactive: -0.055,inactive: 0.032
MARCHF6 (UniProt O60337),inactive: -0.039,inactive: 0.09,inactive: -0.118,inactive: -0.073,inactive: 0.103,inactive: -0.028,inactive: 0.004,inactive: 0.003,inactive: -0.105,inactive: -0.005,inactive: 0.164,inactive: -0.024,inactive: -0.136,inactive: 0.04,inactive: -0.169,inactive: -0.085,inactive: -0.179,inactive: -0.025,inactive: -0.023,inactive: -0.008
MAD2L1BP isoform 3 (UniProt Q15013),inactive: 0.017,inactive: -0.155,inactive: -0.094,inactive: 0.022,inactive: 0.048,inactive: -0.009,inactive: -0.071,inactive: 0.12,inactive: -0.041,inactive: 0.008,inactive: -0.028,inactive: 0.108,inactive: 0.016,inactive: -0.007,inactive: -0.026,inactive: -0.066,inactive: 0.018,inactive: -0.019,inactive: 0.048,inactive: -0.056
LZTFL1 (UniProt Q9NQ48),inactive: -0.004,inactive: -0.039,inactive: 0.028,inactive: 0.007,inactive: 0.013,inactive: -0.011,inactive: -0.015,inactive: -0.01,inactive: -0.021,inactive: -0.023,inactive: -0.017,inactive: 0.029,inactive: -0.013,inactive: -0.006,inactive: 0,inactive: 0,inactive: 0.015,inactive: 0.02,inactive: -0.026,inactive: 0.021
MAP1B (UniProt P46821),inactive: 0.001,inactive: 0.009,inactive: 0,inactive: 0.033,inactive: 0.016,inactive: 0.011,inactive: 0.005,inactive: -0.018,inactive: -0.015,inactive: -0.047,inactive: -0.007,inactive: 0.023,inactive: 0.018,inactive: 0.012,inactive: 0.009,inactive: -0.033,inactive: 0.002,inactive: 0.005,inactive: -0.013,inactive: -0.001
MAPK8 isoform 3 (UniProt P45983),inactive: -0.042,inactive: 0.192,inactive: -0.089,inactive: -0.022,inactive: -0.07,inactive: 0.281,inactive: -0.007,inactive: -0.049,inactive: -0.014,inactive: -0.037,inactive: 0.051,inactive: -0.007,inactive: 0.054,active: 0.326,inactive: 0.07,inactive: -0.139,inactive: 0.006,inactive: 0.093,inactive: 0.115,inactive: -0.062
LTN1 isoform 3 (UniProt O94822),inactive: 0.086,inactive: -0.017,inactive: -0.046,inactive: 0.027,inactive: -0.029,inactive: -0.18,inactive: 0.003,inactive: 0.009,inactive: -0.071,inactive: 0.007,inactive: 0.006,inactive: -0.007,inactive: -0.086,inactive: -0.009,inactive: 0.014,inactive: -0.023,inactive: -0.002,inactive: 0.044,inactive: -0.016,inactive: -0.027

# Some values from the entries so far.
# Entry of LYRM2 (UniProt Q9NU23) under log2 fold change (crizotinib): inactive: 0.056
# Entry of MAD2L1 (UniProt Q13257) under log2 fold change [7]: inactive: -0.02

# From the supplement of paper PMC10849652
